Publication doi:10.1101/2022.11.10.516022

Experiments:
[1] = target: ApoL6-HA overexpressed in differentiated 3T3-L1 adipocytes (mouse); experiment: affinity purification with mass spectrometry
[2] = target: HA-tagged ApoL6 (adipoQ-ApoL6 TG transgene) (mouse); experiment: affinity purification with mass spectrometry

B1: endogenous Perilipin 1 (Plin1) (protein, UniProt Q8CGN5 1-517)
chain: MSMNKGPTLLDGDLPEQENVLQRVLQLPVVSGTCECFQKTYNSTKEAHPLVASVCNAYEKGVQGASNLAAWSMEPVVRRLSTQFTAANELACRGLDHLEEKIPALQYPPEKIASELKGTISTRLRSARNSISVPIASTSDKVLGATLAGCELALGMAKETAEYAANTRVGRLASGGADLALGSIEKVVEFLLPPDKESAPSSGRQRTQKAPKAKPSLVRRVSTLANTLSRHTMQTTAWALKQGHSLAMWIPGVAPLSSLAQWGASAAMQVVSRRQSEVRVPWLHNLAASQDESHDDQTDTEGEETDDEEEEEESEAEENVLREVTALPNPRGLLGGVVHTVQNTLRNTISAVTWAPAAVLGTVGRILHLTPAQAVSSTKGRAMSLSDALKGVTDNVVDTVVHYVPLPRLSLMEPESEFRDIDNPSAEAERKGSGARPASPESTPRPGQPRGSLRSVRGLSAPSCPGLDDKTEASARPGFLAMPREKPARRVSDSFFRPSVMEPILGRAQYSQLRKKS
[1]
  binding: binds
[2]
  binding: binds

No constants are given. Whether binding was seen depends on the method and setting. In cells and extracts the contact can be indirect. A yes stands for co-enrichment or nearness to the bait. Other partners may have been found.
